Where a name gives a salt, the structure may show the parent alone. Some of the results follow. Hit calls seldom repeat between salt and free forms of one compound.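 Kinases were expressed as nanoluciferase fusions in K562 cells and luminescence was read every 4 h between 2 and 18 h as percent of control, DMSO set to 100% and a positive control to 0%. A time point counts as decreased when the signal drops significantly (2 sigma). The hit call is the authors' own, does not follow from the count of time points alone, and its rule is not shown.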
Tests used:
Experiment in all cases: number of time points (of 5) at which kinase-Nluc abundance scored as decreased, DMSO-normalised (count); higher = more persistent destabilization
Conditions in all cases: K562; 2-18 h
[1] = molecular target: CAMK2A (UniProt Q9UQM7)
[2] = molecular target: CAMK2G (UniProt Q13555)
[3] = molecular target: CDK10 (UniProt Q15131)
[4] = molecular target: CDK2 (UniProt P24941)
[5] = molecular target: CDK3 (UniProt Q00526)
[6] = molecular target: CDK5 (UniProt Q00535)
[7] = molecular target: CDK6 (UniProt Q00534)
[8] = molecular target: CHEK2 (UniProt O96017)
[9] = molecular target: CSF1R (UniProt P07333)
[10] = molecular target: CSK (UniProt P41240)

By UniProt entry, the sequences of proteins in these tests, tags left out. Where a name states a change or a piece, a line headed by the entry shows the natural chain unless it says otherwise.
UniProt Q9UQM7, whole entry: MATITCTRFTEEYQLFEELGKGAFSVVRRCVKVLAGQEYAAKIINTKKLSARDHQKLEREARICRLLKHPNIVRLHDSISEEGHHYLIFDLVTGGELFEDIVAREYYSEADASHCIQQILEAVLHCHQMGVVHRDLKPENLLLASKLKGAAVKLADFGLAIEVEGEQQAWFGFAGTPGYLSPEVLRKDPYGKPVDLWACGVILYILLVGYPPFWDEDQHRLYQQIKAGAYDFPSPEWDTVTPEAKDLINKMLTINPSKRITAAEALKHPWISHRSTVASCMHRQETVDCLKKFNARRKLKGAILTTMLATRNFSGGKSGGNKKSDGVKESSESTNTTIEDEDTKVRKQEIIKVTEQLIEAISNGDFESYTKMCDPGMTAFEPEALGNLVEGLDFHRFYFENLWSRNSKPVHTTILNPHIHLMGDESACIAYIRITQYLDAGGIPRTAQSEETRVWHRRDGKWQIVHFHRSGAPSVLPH
UniProt Q13555: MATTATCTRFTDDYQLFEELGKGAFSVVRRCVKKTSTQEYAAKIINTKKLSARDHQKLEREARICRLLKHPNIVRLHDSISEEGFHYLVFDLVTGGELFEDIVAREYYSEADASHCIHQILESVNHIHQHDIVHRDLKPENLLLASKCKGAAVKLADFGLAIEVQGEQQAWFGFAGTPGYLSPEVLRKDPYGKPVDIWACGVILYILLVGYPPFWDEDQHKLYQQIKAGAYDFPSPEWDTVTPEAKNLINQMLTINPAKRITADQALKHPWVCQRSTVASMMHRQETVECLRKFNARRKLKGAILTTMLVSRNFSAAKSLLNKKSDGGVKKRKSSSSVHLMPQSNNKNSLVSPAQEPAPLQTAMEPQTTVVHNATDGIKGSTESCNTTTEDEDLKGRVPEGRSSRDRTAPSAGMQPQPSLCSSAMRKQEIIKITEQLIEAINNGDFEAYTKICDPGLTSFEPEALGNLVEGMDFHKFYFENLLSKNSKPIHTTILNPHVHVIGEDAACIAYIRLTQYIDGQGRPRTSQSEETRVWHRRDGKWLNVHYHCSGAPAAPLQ
UniProt Q15131: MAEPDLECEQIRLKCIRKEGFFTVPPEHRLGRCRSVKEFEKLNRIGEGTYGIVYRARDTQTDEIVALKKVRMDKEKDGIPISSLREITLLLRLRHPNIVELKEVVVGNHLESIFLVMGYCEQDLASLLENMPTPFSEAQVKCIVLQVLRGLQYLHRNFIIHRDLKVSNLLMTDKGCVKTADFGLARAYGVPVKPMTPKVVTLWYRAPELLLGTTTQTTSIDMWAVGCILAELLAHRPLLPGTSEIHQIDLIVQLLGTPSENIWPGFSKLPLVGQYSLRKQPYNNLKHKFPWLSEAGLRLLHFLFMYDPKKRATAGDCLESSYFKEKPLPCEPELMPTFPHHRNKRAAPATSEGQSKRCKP
UniProt Q00526: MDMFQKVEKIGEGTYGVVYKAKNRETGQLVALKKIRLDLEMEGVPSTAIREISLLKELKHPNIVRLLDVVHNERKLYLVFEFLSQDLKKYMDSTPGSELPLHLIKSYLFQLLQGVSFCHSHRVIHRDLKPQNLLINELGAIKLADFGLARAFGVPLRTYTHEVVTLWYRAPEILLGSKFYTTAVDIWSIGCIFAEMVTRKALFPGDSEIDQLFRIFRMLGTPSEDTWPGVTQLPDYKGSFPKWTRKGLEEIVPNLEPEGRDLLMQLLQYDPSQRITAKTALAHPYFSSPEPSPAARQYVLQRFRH
UniProt Q00535, whole entry, looked up: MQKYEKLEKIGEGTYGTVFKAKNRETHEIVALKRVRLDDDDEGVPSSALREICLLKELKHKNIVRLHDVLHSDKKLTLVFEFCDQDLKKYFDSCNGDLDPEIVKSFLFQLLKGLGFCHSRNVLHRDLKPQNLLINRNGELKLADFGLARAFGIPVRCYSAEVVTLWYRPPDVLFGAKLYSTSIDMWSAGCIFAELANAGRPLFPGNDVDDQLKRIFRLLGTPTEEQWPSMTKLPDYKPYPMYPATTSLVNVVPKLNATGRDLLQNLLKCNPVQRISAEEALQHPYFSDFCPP
UniProt Q00534, whole entry: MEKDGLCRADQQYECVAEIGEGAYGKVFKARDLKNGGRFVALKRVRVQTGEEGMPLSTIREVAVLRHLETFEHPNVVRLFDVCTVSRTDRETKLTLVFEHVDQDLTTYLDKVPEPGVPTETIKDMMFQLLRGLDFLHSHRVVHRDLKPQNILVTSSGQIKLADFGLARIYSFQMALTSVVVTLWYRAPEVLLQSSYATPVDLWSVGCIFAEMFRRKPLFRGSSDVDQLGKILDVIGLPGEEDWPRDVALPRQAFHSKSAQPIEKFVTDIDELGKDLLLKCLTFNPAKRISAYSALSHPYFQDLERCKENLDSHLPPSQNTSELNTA
UniProt O96017, whole entry: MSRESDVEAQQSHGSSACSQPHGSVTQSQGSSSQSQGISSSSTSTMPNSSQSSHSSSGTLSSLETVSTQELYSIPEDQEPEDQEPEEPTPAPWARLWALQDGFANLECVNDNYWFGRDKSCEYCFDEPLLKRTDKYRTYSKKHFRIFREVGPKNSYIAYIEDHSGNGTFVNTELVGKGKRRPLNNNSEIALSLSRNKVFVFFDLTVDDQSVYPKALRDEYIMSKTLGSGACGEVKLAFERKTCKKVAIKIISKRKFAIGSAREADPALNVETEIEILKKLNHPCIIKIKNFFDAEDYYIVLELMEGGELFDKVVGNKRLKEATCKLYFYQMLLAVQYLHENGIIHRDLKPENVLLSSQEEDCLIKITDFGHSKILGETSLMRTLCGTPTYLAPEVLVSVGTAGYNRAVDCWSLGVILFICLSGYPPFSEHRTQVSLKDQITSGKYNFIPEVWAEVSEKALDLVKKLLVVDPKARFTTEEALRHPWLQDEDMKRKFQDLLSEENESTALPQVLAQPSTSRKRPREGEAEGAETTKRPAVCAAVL
UniProt P07333, whole entry: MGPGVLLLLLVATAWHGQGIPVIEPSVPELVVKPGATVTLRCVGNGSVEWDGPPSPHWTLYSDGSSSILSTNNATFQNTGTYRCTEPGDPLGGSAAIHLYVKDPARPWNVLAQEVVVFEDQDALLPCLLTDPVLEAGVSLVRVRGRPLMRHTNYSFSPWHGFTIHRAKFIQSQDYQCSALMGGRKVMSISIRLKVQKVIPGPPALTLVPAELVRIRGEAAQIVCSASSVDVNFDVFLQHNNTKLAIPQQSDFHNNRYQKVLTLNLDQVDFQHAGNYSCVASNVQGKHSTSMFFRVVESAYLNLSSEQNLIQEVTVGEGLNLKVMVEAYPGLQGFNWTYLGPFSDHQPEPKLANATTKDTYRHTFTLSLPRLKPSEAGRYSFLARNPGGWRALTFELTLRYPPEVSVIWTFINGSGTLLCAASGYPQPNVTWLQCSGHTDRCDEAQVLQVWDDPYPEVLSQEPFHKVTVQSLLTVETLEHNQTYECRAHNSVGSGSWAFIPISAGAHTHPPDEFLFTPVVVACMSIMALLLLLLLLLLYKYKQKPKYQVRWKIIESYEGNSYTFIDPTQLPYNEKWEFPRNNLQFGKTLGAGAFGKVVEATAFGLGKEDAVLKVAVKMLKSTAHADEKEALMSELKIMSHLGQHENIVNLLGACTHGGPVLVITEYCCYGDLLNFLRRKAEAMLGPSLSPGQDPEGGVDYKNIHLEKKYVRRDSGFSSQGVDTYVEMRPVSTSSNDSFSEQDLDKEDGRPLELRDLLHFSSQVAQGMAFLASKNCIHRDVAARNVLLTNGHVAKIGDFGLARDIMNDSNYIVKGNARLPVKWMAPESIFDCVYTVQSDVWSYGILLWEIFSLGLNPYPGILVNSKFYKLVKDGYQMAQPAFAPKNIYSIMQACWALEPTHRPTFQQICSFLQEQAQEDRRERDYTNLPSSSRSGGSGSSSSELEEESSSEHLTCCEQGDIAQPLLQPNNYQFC
UniProt P41240: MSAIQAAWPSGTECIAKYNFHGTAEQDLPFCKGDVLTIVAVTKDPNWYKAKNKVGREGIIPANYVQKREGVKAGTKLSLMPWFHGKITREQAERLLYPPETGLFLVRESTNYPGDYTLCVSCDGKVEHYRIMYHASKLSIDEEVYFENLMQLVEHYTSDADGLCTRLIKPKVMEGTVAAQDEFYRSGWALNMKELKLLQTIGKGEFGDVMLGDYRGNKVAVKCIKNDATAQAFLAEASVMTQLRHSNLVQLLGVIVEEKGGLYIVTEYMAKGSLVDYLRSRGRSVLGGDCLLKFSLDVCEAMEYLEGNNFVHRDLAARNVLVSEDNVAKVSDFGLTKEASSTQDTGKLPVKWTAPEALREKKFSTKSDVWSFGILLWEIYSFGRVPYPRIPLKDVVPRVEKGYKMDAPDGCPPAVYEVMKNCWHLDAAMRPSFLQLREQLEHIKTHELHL

SMILES	number of time points [1]	number of time points [2]	number of time points [3]	number of time points [4]	number of time points [5]	number of time points [6]	number of time points [7]	number of time points [8]	number of time points [9]	number of time points [10]
N#Cc1c2nc3ccccc3nc2n2ccc(NC(=O)c3cccs3)cc12 (10 µM)	0	0	0	0	0	0	0	0	0	0
c1cc(NC2CCNCC2)nc(-c2cnc3ccccn23)c1 [IRAK inhibitor 1] (10 µM)	0	0	0	0	0	0	0	0	0	0
C[C@H](Nc1ncnc2[nH]cnc12)c1cc2ccc(F)cc2nc1-c1ccccn1 (10 µM)	0	0	0	0	0	0	0	0	0	0
C=CC(=O)N1C[C@H](COc2nc(Nc3cnn(C)c3)nc3[nH]cc(Cl)c23)[C@@H](OC)C1 (2.5 µM)	0	0	0	0	0	0	0	0	0	0
Cc1ncc(NC(=O)NC2c3ccccc3-c3ccccc32)c(-c2ccccc2)n1 (10 µM)	0	0	0	0	0	0	0	0	0	0
CC(C)c1cccc(C(C)C)c1N1C(=O)c2ccc(N)cc2C1=O (2.5 µM)	0	0	0	0	0	0	0	0	0	0
CC(C)(C[C@H](N)C(=O)O)C(F)F [NV-5138 (hydrochloride)] (10 µM)	0	0	0	0	0	0	0	0	0	0
NC(=O)N1CCC(CC(=O)N2CCC([C@H]3c4ncc(Br)cc4CCc4cc(Cl)cc(Br)c43)CC2)CC1 [Lonafarnib] (2.5 µM)	0	0	0	0	0	0	0	0	0	0
O=C1O[C@H]([C@@H](O)CO)C(O)=C1OP(=O)(O)O [2-Phospho-L-ascorbic acid (trisodium)] (10 µM)	0	0	0	0	0	0	0	0	0	0
Nc1n[nH]c2nc(-c3ccc(NS(=O)(=O)c4cc(Cl)ccc4F)cc3)cnc12 (10 µM)	0	0	5	0	0	0	0	0	0	0
O=C1NC(=O)C(c2cnc3ccccn23)=C1c1cn2c3c(cc(F)cc13)CNCC2 [GSK-3 inhibitor 1] (2.5 µM)	0	0	0	0	0	0	0	0	0	0
Oc1cc(O)c2c(c1)OC1(c3ccc(O)c(O)c3)Oc3cc(O)c4c(c3C2C1O)OC(c1ccc(O)c(O)c1)C(O)C4 (stereo not given) [Procyanidin A1] (10 µM)	0	0	0	0	0	0	0	0	0	0
COc1ccc2cc3[n+](cc2c1OC)CCc1cc(O)c(O)cc1-3 [Demethyleneberberine] (10 µM)	0	0	0	0	0	0	0	0	0	0
N#Cc1ccnc(Nc2cc(C3CCN(C4COC4)CC3)cc(N3CCC(F)(F)C3)n2)c1 (2.5 µM)	0	0	0	0	0	0	0	0	0	0
COc1ccc(S(=O)(=O)NCc2ccc(C(=O)NCCc3ccc(Cl)cn3)cc2)cc1 (10 µM)	0	0	0	0	0	0	0	0	0	0
Cc1nc(-c2cnn(C)c2)nc2c1[nH]c1ncc(-c3ccc(N4CCN(C)CC4)cc3)cc12 [GNE 220 (hydrochloride)] (10 µM)	0	0	0	0	0	0	0	0	0	0
CCN(CC)CCC(=O)N1N=C(c2c(-c3ccccc3)c3cc(Br)ccc3[nH]c2=O)CC1c1ccc(Br)cc1 (stereo not given) (2.5 µM)	0	2	0	0	0	0	0	4	0	0
CS(=O)(=O)c1ccc(-c2cnc(N)c(-c3ccc(C(F)(F)F)nc3)c2)cc1 (10 µM)	0	0	0	0	0	0	0	0	0	0
O=C(O)c1cc(=O)c2c(OCC(O)COc3cccc4oc(C(=O)O)cc(=O)c34)cccc2o1 [Cromolyn (sodium)] (10 µM)	0	0	0	0	0	0	0	0	0	0
Cc1ccc(Oc2nc3cc(-c4ccc(-c5ccccc5)cc4)c(Cl)cc3[nH]2)cc1C(=O)O (10 µM)	0	0	0	0	0	0	0	0	0	0
NC(=O)c1cnc2[nH]ccc2c1N[C@@H]1[C@@H]2CC3C[C@H]1C[C@@](O)(C3)C2 [Peficitinib] (10 µM)	0	0	0	0	0	0	0	3	0	0
Oc1ccc(/C=C/c2cc(O)cc(F)c2)cc1 [Resveratrol analog 1] (10 µM)	0	0	0	0	0	0	0	0	0	0
CNc1nc(Nc2cn(C(C)(C)C#N)nc2C)ncc1C(F)(F)F (10 µM)	0	0	0	0	0	0	0	0	0	0

Single values from the list.
In number of time points [2], O=C1NC(=O)C(c2cnc3ccccn23)=C1c1cn2c3c(cc(F)cc13)CNCC2 [GSK-3 inhibitor 1] (2.5 µM) reads 0
In number of time points [5], CCN(CC)CCC(=O)N1N=C(c2c(-c3ccccc3)c3cc(Br)ccc3[nH]c2=O)CC1c1ccc(Br)cc1 (stereo not given) (2.5 µM) reads 0

Following part

SMILES	number of time points [1]	number of time points [2]	number of time points [3]	number of time points [4]	number of time points [5]	number of time points [6]	number of time points [7]	number of time points [8]	number of time points [9]	number of time points [10]
CN1CCC(c2ccccc2CC(C)(C)Nc2nc(N3CCOCC3)nc(-n3c(C(F)F)nc4ccccc43)n2)CC1 [Zandelisib] (10 µM)	0	0	0	0	0	0	0	0	0	0
CC(C)CNc1ccnc(NCc2csc(-c3ccccc3)n2)n1 [KHS101 hydrochloride] (2.5 µM)	0	0	0	0	0	0	0	0	0	0
O=C(Nc1nc2ccccc2[nH]1)c1cccc([N+](=O)[O-])c1 [IRAK-4 protein kinase inhibitor 2] (10 µM)	0	0	0	0	0	0	0	0	0	0
O=C1NC(=Nc2c(Cl)cccc2Cl)S/C1=C\c1ccc2nccnc2c1 (2.5 µM)	0	0	0	0	0	0	0	4	3	0
CCCNC(=O)Nc1ccc(Oc2ncnc3cc(OC)c(OC)cc23)cc1Cl (2.5 µM)	0	0	0	0	0	0	0	0	0	0
CC(C)c1cc(/C=C(\C#N)C(=O)NCCCc2ccccc2)cc(C(C)C)c1O (10 µM)	0	0	0	0	0	0	0	0	0	0
Cn1ncc2cc(-c3cnc(N)c(Cl)c3N3CCC4(CCNC4=O)CC3)ccc21 (10 µM)	0	0	0	0	0	0	0	0	0	0
CCN(CC)c1ccc2cc(-c3nc4cc(C)ccc4o3)c(=O)oc2c1 (10 µM)	0	0	0	0	0	0	0	0	0	0
NC1=NCCN1CC(=O)O [Cyclocreatine] (10 µM)	0	0	0	0	0	0	0	0	0	0
O=C(O)c1cccc(CN2C(=O)/C(=C(\c3ccccc3)c3ccc(Cl)cc3)c3ccccc32)c1 (2.5 µM)	0	0	0	0	0	0	0	0	0	0
C=CC(=O)Nc1cc(-n2c(=O)ccc3cnc4ccc(-c5ccc(NS(C)(=O)=O)cc5)cc4c32)ccc1C (10 µM)	0	0	0	0	0	0	0	0	0	0
C[C@@H]1CCNC(=O)c2cc3ccc(C(=O)Nc4nc5ccccc5n4CCCN(C)C)cc3n21 (10 µM)	0	0	0	0	0	0	0	0	0	0
Nc1nc(N)c2nc(-c3cccc(O)c3)cnc2n1 (10 µM)	0	0	0	0	0	0	0	0	0	0
CCn1c(=O)c(-c2cc[nH]n2)cc2c(C)nc(N)nc21 [Voxtalisib] (10 µM)	0	0	0	0	0	0	0	0	0	0
C=CCc1ccc(O)c(-c2ccc(O)c(CC=C)c2)c1 [Honokiol] (10 µM)	0	0	0	0	0	0	0	0	0	0
Cc1cnc(-c2ccc(-c3ccc(NC(=O)Nc4cccc(C(F)(F)F)c4)cc3F)c3c2C(=O)NC3)[nH]1 (10 µM)	0	0	0	0	0	0	0	0	0	0
N[C@@H](CCC(=O)O)C(=O)N[C@@H](Cc1c[nH]c2ccccc12)C(=O)O [Oglufanide] (10 µM)	0	0	0	0	0	0	0	0	0	0
CC(C)N1CCN(c2ccc(Nc3ncc4cc5n(c4n3)C3(CCCCC3)CNC5=O)nc2)CC1 [Lerociclib (dihydrochloride)] (2 µM)	0	0	0	0	0	0	0	0	0	0
CCN(CC)c1cc2oc(=O)c(-c3nc4ccccc4o3)cc2cc1C (2.5 µM)	0	0	0	0	0	0	0	0	0	0
CC1(C)Cc2c(sc(NC(=S)NC(=O)c3ccccc3)c2C(=O)O)CO1 (10 µM)	0	0	0	0	0	0	0	0	0	0
CN(c1ccc(NC(=O)Nc2ccc(OC(F)(F)F)cc2)cc1)c1ccnc(Nc2cccc(S(N)(=O)=O)c2)n1 (2.5 µM)	1	0	3	0	0	1	0	2	3	0
Nc1cccc(-c2cc3c(Oc4cccc(O)c4)ncnc3[nH]2)c1 (10 µM)	0	1	0	0	0	0	0	2	0	0
